Laboratory results: publication PMC6966961
These are yes or no findings as the source states them, for the method shown. Some results given as binding are weak or reduced against the parent protein; the word gives no strength.

How the values were obtained:
Assay in all cases: two-hybrid; split ubiquitin yeast two hybrid (SUB Y2H) in S. cerevisiae NMY51; AtPIP1;1 in pMetYCgate (CubPLV), other AtPIPs in pXNgate (NubG); positive transformants 10-fold serially diluted, spotted on SD-WLAH plates, 30°C, 2 days; the same transformants also grown in liquid SD-WLAH (OD600 after 2 days)
[1] = target: T1, 1;1Q88L (AtPIP1;1 mutant, with glutamine at site of 88 mutated into leucine) (Arabidopsis thaliana ecotype Col-0) (UniProt P61837)
T1 sequence: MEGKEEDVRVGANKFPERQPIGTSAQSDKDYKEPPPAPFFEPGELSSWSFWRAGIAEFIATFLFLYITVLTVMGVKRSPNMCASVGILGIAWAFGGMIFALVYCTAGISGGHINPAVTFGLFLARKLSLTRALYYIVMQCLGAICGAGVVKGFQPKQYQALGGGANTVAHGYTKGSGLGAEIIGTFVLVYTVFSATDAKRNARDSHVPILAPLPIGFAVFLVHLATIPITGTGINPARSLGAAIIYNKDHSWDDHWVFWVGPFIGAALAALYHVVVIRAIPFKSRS

[2] = target: T2, AtPIP1;1 (Arabidopsis thaliana ecotype Col-0) (UniProt P61837)
T2 sequence: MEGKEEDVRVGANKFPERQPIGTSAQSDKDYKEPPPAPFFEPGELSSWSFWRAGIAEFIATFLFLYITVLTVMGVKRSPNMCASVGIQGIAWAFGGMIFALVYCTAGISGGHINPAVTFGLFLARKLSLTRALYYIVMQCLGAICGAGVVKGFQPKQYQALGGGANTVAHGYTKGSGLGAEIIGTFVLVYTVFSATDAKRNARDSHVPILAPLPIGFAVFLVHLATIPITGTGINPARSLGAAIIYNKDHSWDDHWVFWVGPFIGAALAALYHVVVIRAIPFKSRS

[3] = target: 1;1A100V (AtPIP1;1 mutant, with alanine at site of 100 mutated into valine) (Arabidopsis thaliana ecotype Col-0) (UniProt P61837)
[4] = target: AtPIP2;4 (Arabidopsis thaliana ecotype Col-0) (UniProt Q9FF53)
[5] = target: 2;4L81Q (AtPIP2;4 mutant, with leucine at site of 81 mutated into glutamine) (Arabidopsis thaliana ecotype Col-0) (UniProt Q9FF53)
[6] = target: 2;4V93A (AtPIP2;4 mutant, with valine at site of 100 mutated into alanine) (Arabidopsis thaliana ecotype Col-0) (UniProt Q9FF53)

B1: 2;4ΔTM2/1;1TM2 (protein, UniProt Q9FF53 1-291)
chain: MAKDLDVNESGPPAARDYKDPPPAPFFDMEELRKWPLYRAVIAEFVATLLFLYVSILTVIGYKAQTDATAGGVDCGGVGIQGIAWAFGGMIFALVYCTAGISGGHINPAVTVGLFLARKVSLVRTVLYIVAQCLGAICGCGFVKAFQSSYYTRYGGGANELADGYNKGTGLGAEIIGTFVLVYTVFSATDPKRNARDSHVPVLAPLPIGFAVFMVHLATIPITGTGINPARSFGAAVIYNNEKAWDDQWIFWVGPMIGAAAAAFYHQFILRAAAIKALGSFGSFGSFRSFA
binding [1]: binds | binding [2]: binds

B2: AtPIP1;1 (protein, UniProt P61837 1-286)
chain: MEGKEEDVRVGANKFPERQPIGTSAQSDKDYKEPPPAPFFEPGELSSWSFWRAGIAEFIATFLFLYITVLTVMGVKRSPNMCASVGIQGIAWAFGGMIFALVYCTAGISGGHINPAVTFGLFLARKLSLTRALYYIVMQCLGAICGAGVVKGFQPKQYQALGGGANTVAHGYTKGSGLGAEIIGTFVLVYTVFSATDAKRNARDSHVPILAPLPIGFAVFLVHLATIPITGTGINPARSLGAAIIYNKDHSWDDHWVFWVGPFIGAALAALYHVVVIRAIPFKSRS
binding [2]: binds weakly

B3: 1;1Q88L (AtPIP1;1 mutant, with glutamine at site of 88 mutated into leucine) (protein, UniProt P61837 1-286)
chain: MEGKEEDVRVGANKFPERQPIGTSAQSDKDYKEPPPAPFFEPGELSSWSFWRAGIAEFIATFLFLYITVLTVMGVKRSPNMCASVGILGIAWAFGGMIFALVYCTAGISGGHINPAVTFGLFLARKLSLTRALYYIVMQCLGAICGAGVVKGFQPKQYQALGGGANTVAHGYTKGSGLGAEIIGTFVLVYTVFSATDAKRNARDSHVPILAPLPIGFAVFLVHLATIPITGTGINPARSLGAAIIYNKDHSWDDHWVFWVGPFIGAALAALYHVVVIRAIPFKSRS
binding [1]: binds weakly

B4: 1;1A100V (AtPIP1;1 mutant, with alanine at site of 100 mutated into valine) (protein, UniProt P61837 1-286)
chain: MEGKEEDVRVGANKFPERQPIGTSAQSDKDYKEPPPAPFFEPGELSSWSFWRAGIAEFIATFLFLYITVLTVMGVKRSPNMCASVGIQGIAWAFGGMIFVLVYCTAGISGGHINPAVTFGLFLARKLSLTRALYYIVMQCLGAICGAGVVKGFQPKQYQALGGGANTVAHGYTKGSGLGAEIIGTFVLVYTVFSATDAKRNARDSHVPILAPLPIGFAVFLVHLATIPITGTGINPARSLGAAIIYNKDHSWDDHWVFWVGPFIGAALAALYHVVVIRAIPFKSRS
binding [3]: binds weakly

B5: AtPIP2;4 (protein, UniProt Q9FF53 1-291)
chain: MAKDLDVNESGPPAARDYKDPPPAPFFDMEELRKWPLYRAVIAEFVATLLFLYVSILTVIGYKAQTDATAGGVDCGGVGILGIAWAFGGMIFVLVYCTAGISGGHINPAVTVGLFLARKVSLVRTVLYIVAQCLGAICGCGFVKAFQSSYYTRYGGGANELADGYNKGTGLGAEIIGTFVLVYTVFSATDPKRNARDSHVPVLAPLPIGFAVFMVHLATIPITGTGINPARSFGAAVIYNNEKAWDDQWIFWVGPMIGAAAAAFYHQFILRAAAIKALGSFGSFGSFRSFA
binding [2]: binds | binding [4]: binds

B6: 2;4L81Q (AtPIP2;4 mutant, with leucine at site of 81 mutated into glutamine) (protein, UniProt Q9FF53 1-291)
chain: MAKDLDVNESGPPAARDYKDPPPAPFFDMEELRKWPLYRAVIAEFVATLLFLYVSILTVIGYKAQTDATAGGVDCGGVGIQGIAWAFGGMIFVLVYCTAGISGGHINPAVTVGLFLARKVSLVRTVLYIVAQCLGAICGCGFVKAFQSSYYTRYGGGANELADGYNKGTGLGAEIIGTFVLVYTVFSATDPKRNARDSHVPVLAPLPIGFAVFMVHLATIPITGTGINPARSFGAAVIYNNEKAWDDQWIFWVGPMIGAAAAAFYHQFILRAAAIKALGSFGSFGSFRSFA
binding [5]: binds

B7: 2;4V93A (AtPIP2;4 mutant, with valine at site of 100 mutated into alanine) (protein, UniProt Q9FF53 1-291)
chain: MAKDLDVNESGPPAARDYKDPPPAPFFDMEELRKWPLYRAVIAEFVATLLFLYVSILTVIGYKAQTDATAGGVDCGGVGILGIAWAFGGMIFALVYCTAGISGGHINPAVTVGLFLARKVSLVRTVLYIVAQCLGAICGCGFVKAFQSSYYTRYGGGANELADGYNKGTGLGAEIIGTFVLVYTVFSATDPKRNARDSHVPVLAPLPIGFAVFMVHLATIPITGTGINPARSFGAAVIYNNEKAWDDQWIFWVGPMIGAAAAAFYHQFILRAAAIKALGSFGSFGSFRSFA
binding [6]: binds
